Measurements reported in patent US20240182571A1.
No constants are given. Whether binding was seen depends on the method and setting. Some results given as binding are weak or reduced against the parent protein; the word gives no strength.

Protein sequences, listed by entry. Tags and fused reporters are not part of them. Residues count along the entry.
UniProt Q15116, residues 25-288: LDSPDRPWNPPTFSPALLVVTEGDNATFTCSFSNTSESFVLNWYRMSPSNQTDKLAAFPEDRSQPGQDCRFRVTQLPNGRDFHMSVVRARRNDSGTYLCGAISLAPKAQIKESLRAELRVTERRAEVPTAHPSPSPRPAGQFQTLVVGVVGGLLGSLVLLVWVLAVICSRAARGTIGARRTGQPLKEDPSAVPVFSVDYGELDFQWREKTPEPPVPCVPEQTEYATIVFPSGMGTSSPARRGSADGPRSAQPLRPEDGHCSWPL

Experiments:
[1] = biological target: PD-1 expressed on cells (UniProt Q15116); assay: flow cytometry, 1:1 co-culture of U937 PD-1+ and U937 PD-1- cells, detection with anti-human IgG PE, % positive cells [middle panel]
[2] = biological target: PD-1 expressed on cells (UniProt Q15116); assay: flow cytometry (FACs analysis), U937 PD-1+ CD127+ cells co-cultured with U937 PD-1- CD127+ cells, detection with anti-human IgG PE, % cell binding
[3] = biological target: PD-1 expressed on cells (UniProt Q15116); assay: flow cytometry, co-culture of U937 PD-1+ and PD-1- cells, anti IgG-PE; positive control staining

Measured: binding

B1: anti PD-1*2 (antibody, human IgG4 S228P, kappa, V domains shown)
VH: QIQLVQSGSELKKPGASVKVSCKASGYTFTHYAMNWVRQAPGQGLEWMGWINTNTGEPTYAQGFTGRFVFSLDTSVSTAYLQISSLKAEDTAVYYCAREREPGMDNWGQGTLVTVSS
VL: DVVMTQSPLSLPVTLGQPASISCRSSQSLVHANTNTYLEWYQQRPGQSPRLLIYKVSNRFSGVPDRFSGSGSGTDFTLKISRVEAEDVGVYYCFQGTHVPNTFGQGTKLEIKR
binds: all assays above
